The exact form of at least one protein or probe is not confirmed.
Molecular target: DNA adenine-N6 methyltransferase M.TaqI (Thermus aquaticus) (UniProt P14385)
Assay: competition, 2-aminopurine fluorescence titration
Conditions: strand 2 A9 = N6-methyl-dA, 20 mM TrisOAc pH 7.9, 10 mM Mg(OAc)2, 50 mM KOAc, 0.01% reduced Triton X-100, with 1 mM DTT (unlocked) or no reducing agent (locked), recombinant protein

The chains behind the UniProt entries cited, without tags or fusion partners. Where a name states a change or a piece, a line headed by the entry shows the natural chain unless it says otherwise.
UniProt P14385: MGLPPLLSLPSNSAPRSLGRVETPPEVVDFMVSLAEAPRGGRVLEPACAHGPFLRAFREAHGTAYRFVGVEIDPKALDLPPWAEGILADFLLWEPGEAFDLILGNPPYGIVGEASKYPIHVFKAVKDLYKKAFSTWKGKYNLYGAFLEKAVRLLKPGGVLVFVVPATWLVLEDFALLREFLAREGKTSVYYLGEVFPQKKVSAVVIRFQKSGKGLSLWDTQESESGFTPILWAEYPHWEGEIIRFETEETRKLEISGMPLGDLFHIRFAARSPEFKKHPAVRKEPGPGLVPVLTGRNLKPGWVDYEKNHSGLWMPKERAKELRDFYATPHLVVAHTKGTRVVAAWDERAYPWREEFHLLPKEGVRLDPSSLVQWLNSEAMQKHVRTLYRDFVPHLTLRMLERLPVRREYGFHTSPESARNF

| Sequence | Kd [nM] | Kd (strand 1 A9 = N6-methyl-dA) [nM] |
| --- | --- | --- |
| GCCGCTCGATGCCG (double strand) [hemi-methylated target duplex 1A·2T] | 2.9 | – |
| GCCGCTCGATGCCG (double strand) [fully methylated duplex 1AMe·2T] | – | 56 |
